PubChem BioAssay AID248 (DTP/NCI, 2004)
The list does not hold the whole screen: it gathers tests that were run many times, whatever their T/C, doses with no T/C, and many T/C values between a quarter and a half above the control. Further doses and runs are listed elsewhere. T/C gives the treated animals as a percentage of the vehicle group. Some doses have a count of surviving animals in place of a T/C: the source holds a T/C of zero for them, seemingly a mark for toxic or unscored doses. Some survivor counts are full or nearly so, which does not show that the dose was tolerated: the source hardly ever lists a survival T/C far under the control, and the zero likely stands for such cases as well. Survivors were counted at the toxicity check, usually on the fifth day, unless a day is given; later deaths do not show. Schedule codes are those of the source, read here as Q, the interval in days (D) or hours (H), X, the number of doses. For survival time, this PubChem deposit counts one and a half times the control or more as active, and values a quarter to a half above the control carry no call in these data; other NCI protocols may use other cut-offs. Some T/C values carry the count of animals alive at the toxicity check (mostly the fifth day); without a count, all were alive then. Some entries were tested several times; the values are given in rising order. Marks such as (2×) count equal records among those shown.

Tested on: L1210 leukemia ip in BDF1 mice, survival T/C
Test: NCI In Vivo Anticancer Drug Screen. Data for tumor model L1210 Leukemia (intraperitoneal) in B6D2F1 (BDF1) mice
Conditions: higher T/C = longer survival
[1] = T/C endpoint: median survival time, dose: 64.0 mg/kg/injection, schedule: Q01DX009 (oral), vehicle: saline with Tween-80

With `CC(CN1CC(=O)NC(=O)C1)N1CC(=O)NC(=O)C1` (stereo unspecified) the T/C (T/C endpoint: mean survival time, dose: 800.0 mg/kg/injection, schedule: Q01DX001 (oral), vehicle: steroid suspending solution) was 128 % of control, the survivor count (T/C endpoint: mean survival time, dose: 800.0 mg/kg/injection, schedule: Q04DX003 (ip), vehicle: steroid suspending solution) was 5 of 8 and the T/C (T/C endpoint: mean survival time, dose: 1600.0 mg/kg/injection, schedule: Q08DX002 (oral), vehicle: steroid suspending solution) was 132 % of control. The T/C (T/C endpoint: median survival time, dose: 2.0 mg/kg/injection, schedule: Q03HX024 (ip), vehicle: Klucel (hydroxypropylcellulose) (HPC), evaluated on day 7) was 141 % of control, the T/C (T/C endpoint: median survival time, dose: 2.0 mg/kg/injection, schedule: Q03HX024 (ip), vehicle: Klucel (hydroxypropylcellulose) (HPC), evaluated on day 30) was 141 % of control and the T/C (T/C endpoint: median survival time, dose: 8.0 mg/kg/injection, schedule: Q01DX009 (ip), vehicle: saline with Tween-80) was 121, 123, 126 (2×), 129 % of control. For the same compound, the T/C (T/C endpoint: median survival time, dose: 8.0 mg/kg/injection, schedule: Q01DX009 (oral), vehicle: saline with Tween-80) was 127, 129, 132, 134 % of control, the T/C (T/C endpoint: median survival time, dose: 12.5 mg/kg/injection, schedule: Q01DX009 (ip), vehicle: Klucel (hydroxypropylcellulose) (HPC)) was 146 % of control and the T/C (T/C endpoint: median survival time, dose: 12.5 mg/kg/injection, schedule: Q03HX008 (ip), vehicle: Klucel (hydroxypropylcellulose) (HPC)) was 144 % of control. The T/C (T/C endpoint: median survival time, dose: 16.0 mg/kg/injection, schedule: Q01DX009 (ip), vehicle: saline with Tween-80) was 136, 142, 144, 145, 152 % of control, the T/C (T/C endpoint: median survival time, dose: 16.0 mg/kg/injection, schedule: Q01DX009 (oral), vehicle: saline with Tween-80) was 142, 144, 150, 158 % of control and the T/C (T/C endpoint: median survival time, dose: 16.0 mg/kg/injection, schedule: Q01DX009 (sc), vehicle: saline with Tween-80) was 125 % of control. The T/C (T/C endpoint: median survival time, dose: 16.0 mg/kg/injection, schedule: Q03HX024 (ip), vehicle: Klucel (hydroxypropylcellulose) (HPC), evaluated on day 7) was 146 and 220 % of control, the T/C (T/C endpoint: median survival time, dose: 16.0 mg/kg/injection, schedule: Q03HX024 (ip), vehicle: Klucel (hydroxypropylcellulose) (HPC), evaluated on day 30) was 220 % of control and the T/C (T/C endpoint: median survival time, dose: 16.0 mg/kg/injection, schedule: Q03HX024 (ip), vehicle: Klucel (hydroxypropylcellulose) (HPC), evaluated on day 32) was 130 % of control [7 of 8 alive]. The T/C (T/C endpoint: median survival time, dose: 25.0 mg/kg/injection, schedule: Q01DX009 (ip), vehicle: Klucel (hydroxypropylcellulose) (HPC)) was 145 % of control, the T/C (T/C endpoint: median survival time, dose: 27.0 mg/kg/injection, schedule: Q03HX024 (ip), vehicle: Klucel (hydroxypropylcellulose) (HPC), evaluated on day 7) was 148 % of control and the T/C (T/C endpoint: median survival time, dose: 27.0 mg/kg/injection, schedule: Q03HX024 (ip), vehicle: Klucel (hydroxypropylcellulose) (HPC), evaluated on day 32) was 145 % of control. The T/C (T/C endpoint: median survival time, dose: 32.0 mg/kg/injection, schedule: Q01DX009 (ip), vehicle: saline with Tween-80) was 156, 158, 165, 173, 176 % of control, the T/C (T/C endpoint: median survival time, dose: 32.0 mg/kg/injection, schedule: Q01DX009 (oral), vehicle: saline with Tween-80) was 104, 130 [9 of 10 alive], 158, 184 % of control and the T/C (T/C endpoint: median survival time, dose: 50.0 mg/kg/injection, schedule: Q03HX008 (ip), vehicle: Klucel (hydroxypropylcellulose) (HPC)) was 134 % of control. For the same compound, the T/C (T/C endpoint: median survival time, dose: 50.0 mg/kg/injection, schedule: Q04DX003 (ip), vehicle: Klucel (hydroxypropylcellulose) (HPC), evaluated on day 5) was 93, 105, 108, 132, 164 % of control, the T/C (T/C endpoint: median survival time, dose: 50.0 mg/kg/injection, schedule: Q04DX003 (ip), vehicle: Klucel (hydroxypropylcellulose) (HPC), evaluated on day 30) was 132 % of control and the T/C (T/C endpoint: median survival time, dose: 50.0 mg/kg/injection, schedule: Q04DX003 (ip), vehicle: Klucel (hydroxypropylcellulose) (HPC), evaluated on day 46) was 95 % of control. The T/C (T/C endpoint: median survival time, dose: 50.0 mg/kg/injection, schedule: Q04DX003 (ip), vehicle: Klucel (hydroxypropylcellulose) (HPC), evaluated on day 60) was 100, 108, 166 % of control, the T/C (T/C endpoint: median survival time, dose: 64.0 mg/kg/injection, schedule: Q01DX009 (ip), vehicle: saline with Tween-80) was 141, 150 [9 of 10 alive], 168, 173, 176 % of control and the T/C [1] was 97, 101 [9 of 10 alive], 124 % of control. The survivor count [1] was 10 of 10, the T/C (T/C endpoint: median survival time, dose: 64.0 mg/kg/injection, schedule: Q01DX009 (sc), vehicle: saline with Tween-80) was 139 % of control and the T/C (T/C endpoint: median survival time, dose: 64.0 mg/kg/injection, schedule: Q03HX024 (ip), vehicle: Klucel (hydroxypropylcellulose) (HPC), evaluated on day 7) was 138 % of control. The T/C (T/C endpoint: median survival time, dose: 64.0 mg/kg/injection, schedule: Q03HX024 (ip), vehicle: Klucel (hydroxypropylcellulose) (HPC), evaluated on day 30) was 138 % of control.
